Assay results published in article PMC9425024.

Molecular target: T1, bZIP25-cYFP (UniProt Q9M1G6)
T1 sequence: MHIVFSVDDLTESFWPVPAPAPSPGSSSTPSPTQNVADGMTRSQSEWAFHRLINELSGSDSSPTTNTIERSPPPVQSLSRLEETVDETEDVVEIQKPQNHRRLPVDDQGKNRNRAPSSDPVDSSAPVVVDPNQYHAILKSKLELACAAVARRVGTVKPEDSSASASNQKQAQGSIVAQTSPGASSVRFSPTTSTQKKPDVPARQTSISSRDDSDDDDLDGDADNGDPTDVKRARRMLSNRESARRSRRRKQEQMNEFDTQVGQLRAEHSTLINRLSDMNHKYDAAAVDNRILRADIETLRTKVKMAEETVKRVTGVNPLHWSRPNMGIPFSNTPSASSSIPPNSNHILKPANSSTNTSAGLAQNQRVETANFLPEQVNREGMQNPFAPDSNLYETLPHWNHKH
Assay: split reporter; BiFC with split YFP (pA7-nYFP, pA7-cYFP, CaMV35S promoter), pairs cotransformed into A. thaliana Col-0 protoplasts, fluorescence microscopy; binder written here = nYFP fusion, target = cYFP fusion

binding: no binding
Substance: CTD ProXp-ala fused to split YFP (CTD-nYFP, CTD-cYFP) (Arabidopsis thaliana) (domain or fragment)

These are yes or no findings as the source states them, for the method shown. Binding seen in cells or lysates may run through a third protein. Where a sequence is shown, tags or fusion partners need not be part of it.
